The record followed here is publication PMC4381397, “The recently identified modifier of murine metastable epialleles, Rearranged L-Myc Fusion, is involved in maintaining epigenetic marks at CpG island shores and enhancers”.

By UniProt entry, the sequences of proteins in these tests, tags left out.
UniProt Q13129: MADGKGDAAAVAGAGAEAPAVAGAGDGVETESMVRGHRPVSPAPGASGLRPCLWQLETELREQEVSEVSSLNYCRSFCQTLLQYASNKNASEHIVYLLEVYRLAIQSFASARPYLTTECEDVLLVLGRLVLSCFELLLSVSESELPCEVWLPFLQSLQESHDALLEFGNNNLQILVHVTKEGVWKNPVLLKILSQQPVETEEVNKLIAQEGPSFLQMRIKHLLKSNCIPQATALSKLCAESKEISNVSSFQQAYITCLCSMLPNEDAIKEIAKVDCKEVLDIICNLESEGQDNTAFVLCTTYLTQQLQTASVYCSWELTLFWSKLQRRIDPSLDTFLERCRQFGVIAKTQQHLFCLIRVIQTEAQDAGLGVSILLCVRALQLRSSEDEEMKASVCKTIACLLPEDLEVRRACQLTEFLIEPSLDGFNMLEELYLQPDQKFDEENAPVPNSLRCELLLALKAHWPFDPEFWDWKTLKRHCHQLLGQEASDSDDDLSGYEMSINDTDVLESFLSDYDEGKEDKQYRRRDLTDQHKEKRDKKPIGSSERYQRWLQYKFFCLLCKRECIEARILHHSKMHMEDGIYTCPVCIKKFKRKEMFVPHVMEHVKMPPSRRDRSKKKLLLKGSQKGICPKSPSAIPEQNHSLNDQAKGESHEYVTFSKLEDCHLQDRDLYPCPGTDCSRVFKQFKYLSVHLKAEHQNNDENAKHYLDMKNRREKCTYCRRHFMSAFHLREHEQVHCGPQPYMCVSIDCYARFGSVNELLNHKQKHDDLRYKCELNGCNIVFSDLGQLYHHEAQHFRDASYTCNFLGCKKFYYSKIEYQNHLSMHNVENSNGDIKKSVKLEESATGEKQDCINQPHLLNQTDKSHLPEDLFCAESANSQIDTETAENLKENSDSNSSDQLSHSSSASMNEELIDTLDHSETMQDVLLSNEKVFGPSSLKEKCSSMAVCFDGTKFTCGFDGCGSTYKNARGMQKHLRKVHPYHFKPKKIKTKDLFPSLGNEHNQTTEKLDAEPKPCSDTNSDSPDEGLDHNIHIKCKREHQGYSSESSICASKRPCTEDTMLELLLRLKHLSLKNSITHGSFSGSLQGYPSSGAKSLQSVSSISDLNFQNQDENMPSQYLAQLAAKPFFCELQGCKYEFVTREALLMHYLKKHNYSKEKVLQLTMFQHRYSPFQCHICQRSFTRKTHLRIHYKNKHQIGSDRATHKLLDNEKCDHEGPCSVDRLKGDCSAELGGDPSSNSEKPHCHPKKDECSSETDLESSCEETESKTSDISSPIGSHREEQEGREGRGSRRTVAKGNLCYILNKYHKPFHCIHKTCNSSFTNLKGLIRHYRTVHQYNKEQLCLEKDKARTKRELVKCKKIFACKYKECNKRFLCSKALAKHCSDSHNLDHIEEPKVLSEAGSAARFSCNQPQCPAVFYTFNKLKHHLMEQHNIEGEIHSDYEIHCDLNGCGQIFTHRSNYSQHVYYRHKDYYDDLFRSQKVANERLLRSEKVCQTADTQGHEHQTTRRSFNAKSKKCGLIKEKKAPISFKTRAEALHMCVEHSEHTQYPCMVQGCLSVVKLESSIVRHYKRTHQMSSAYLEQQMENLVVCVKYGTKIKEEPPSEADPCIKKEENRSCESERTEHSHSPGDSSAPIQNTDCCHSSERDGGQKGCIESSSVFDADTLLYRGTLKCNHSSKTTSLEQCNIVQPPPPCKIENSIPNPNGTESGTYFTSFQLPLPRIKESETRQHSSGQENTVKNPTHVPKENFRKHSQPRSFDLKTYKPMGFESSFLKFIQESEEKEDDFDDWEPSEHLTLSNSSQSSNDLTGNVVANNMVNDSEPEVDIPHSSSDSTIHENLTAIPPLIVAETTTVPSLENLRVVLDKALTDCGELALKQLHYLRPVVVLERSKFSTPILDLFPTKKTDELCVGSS
UniProt P45973: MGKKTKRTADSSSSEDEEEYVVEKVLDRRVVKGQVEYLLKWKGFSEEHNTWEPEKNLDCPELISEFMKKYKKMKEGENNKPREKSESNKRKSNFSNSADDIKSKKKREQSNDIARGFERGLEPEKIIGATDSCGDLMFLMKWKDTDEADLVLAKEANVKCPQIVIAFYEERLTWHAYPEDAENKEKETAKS
UniProt O60934: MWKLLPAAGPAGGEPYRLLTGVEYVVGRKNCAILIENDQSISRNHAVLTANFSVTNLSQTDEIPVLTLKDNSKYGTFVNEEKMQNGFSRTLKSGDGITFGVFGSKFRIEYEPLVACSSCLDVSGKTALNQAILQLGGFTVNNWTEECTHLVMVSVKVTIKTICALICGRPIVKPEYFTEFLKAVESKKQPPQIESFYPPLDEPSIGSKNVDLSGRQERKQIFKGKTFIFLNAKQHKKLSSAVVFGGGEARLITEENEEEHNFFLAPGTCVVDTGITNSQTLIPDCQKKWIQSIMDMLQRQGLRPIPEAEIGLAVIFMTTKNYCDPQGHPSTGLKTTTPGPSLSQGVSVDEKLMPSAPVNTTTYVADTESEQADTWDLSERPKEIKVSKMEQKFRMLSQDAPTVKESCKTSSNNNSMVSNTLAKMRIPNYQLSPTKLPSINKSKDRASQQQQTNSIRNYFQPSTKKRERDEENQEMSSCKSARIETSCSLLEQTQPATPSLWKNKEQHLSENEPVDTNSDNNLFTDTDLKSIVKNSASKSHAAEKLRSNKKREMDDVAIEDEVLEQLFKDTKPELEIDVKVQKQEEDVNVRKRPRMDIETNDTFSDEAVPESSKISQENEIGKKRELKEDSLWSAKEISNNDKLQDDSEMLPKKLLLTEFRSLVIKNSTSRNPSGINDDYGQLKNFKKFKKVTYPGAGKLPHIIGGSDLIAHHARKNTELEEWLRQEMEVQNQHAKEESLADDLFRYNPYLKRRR
UniProt Q92878: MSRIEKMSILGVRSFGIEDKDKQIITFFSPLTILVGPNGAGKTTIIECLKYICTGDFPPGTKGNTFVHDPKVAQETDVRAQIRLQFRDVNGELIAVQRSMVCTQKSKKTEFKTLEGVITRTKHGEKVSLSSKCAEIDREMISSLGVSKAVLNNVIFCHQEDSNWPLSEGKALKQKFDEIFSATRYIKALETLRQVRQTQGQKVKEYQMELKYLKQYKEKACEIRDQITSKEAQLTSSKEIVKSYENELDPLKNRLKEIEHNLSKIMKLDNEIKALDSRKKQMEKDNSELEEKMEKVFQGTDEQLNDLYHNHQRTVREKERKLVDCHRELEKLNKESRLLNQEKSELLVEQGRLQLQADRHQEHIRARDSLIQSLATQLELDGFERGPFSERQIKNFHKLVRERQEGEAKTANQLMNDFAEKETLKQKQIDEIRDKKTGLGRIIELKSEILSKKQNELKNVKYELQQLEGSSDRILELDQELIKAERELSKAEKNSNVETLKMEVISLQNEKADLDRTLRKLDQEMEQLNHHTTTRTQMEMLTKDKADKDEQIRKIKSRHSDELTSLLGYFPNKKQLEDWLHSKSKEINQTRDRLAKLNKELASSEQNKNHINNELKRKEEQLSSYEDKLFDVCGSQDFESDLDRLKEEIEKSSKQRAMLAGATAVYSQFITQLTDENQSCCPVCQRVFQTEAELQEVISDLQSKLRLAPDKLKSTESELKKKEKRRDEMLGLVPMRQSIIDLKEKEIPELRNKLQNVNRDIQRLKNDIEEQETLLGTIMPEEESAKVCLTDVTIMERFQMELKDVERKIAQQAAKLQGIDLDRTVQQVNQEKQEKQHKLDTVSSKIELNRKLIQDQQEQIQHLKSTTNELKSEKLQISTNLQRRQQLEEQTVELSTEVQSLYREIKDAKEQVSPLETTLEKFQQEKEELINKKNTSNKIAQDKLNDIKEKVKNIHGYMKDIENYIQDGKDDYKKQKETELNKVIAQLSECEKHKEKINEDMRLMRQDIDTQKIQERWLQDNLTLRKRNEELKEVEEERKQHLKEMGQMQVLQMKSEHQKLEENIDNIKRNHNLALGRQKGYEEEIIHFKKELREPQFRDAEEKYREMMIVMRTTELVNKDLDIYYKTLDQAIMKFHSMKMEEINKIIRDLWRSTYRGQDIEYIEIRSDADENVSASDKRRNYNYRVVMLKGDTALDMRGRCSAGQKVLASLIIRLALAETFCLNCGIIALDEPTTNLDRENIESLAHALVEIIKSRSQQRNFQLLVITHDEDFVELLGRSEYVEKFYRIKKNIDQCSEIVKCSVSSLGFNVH
UniProt Q9UKL0: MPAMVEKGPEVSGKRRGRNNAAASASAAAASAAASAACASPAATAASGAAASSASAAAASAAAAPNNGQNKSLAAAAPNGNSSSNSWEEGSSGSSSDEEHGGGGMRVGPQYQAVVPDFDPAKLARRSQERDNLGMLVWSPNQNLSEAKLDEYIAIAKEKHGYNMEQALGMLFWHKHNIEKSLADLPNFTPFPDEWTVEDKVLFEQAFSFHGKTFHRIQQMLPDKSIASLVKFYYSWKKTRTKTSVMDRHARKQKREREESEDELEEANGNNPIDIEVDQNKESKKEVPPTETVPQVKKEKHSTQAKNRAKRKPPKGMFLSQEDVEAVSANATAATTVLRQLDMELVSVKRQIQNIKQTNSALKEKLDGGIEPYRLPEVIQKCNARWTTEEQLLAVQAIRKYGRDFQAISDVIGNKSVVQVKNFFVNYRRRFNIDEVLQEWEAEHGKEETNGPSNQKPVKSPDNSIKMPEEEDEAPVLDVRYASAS

Results are given in words; binding and its absence hold for the method and conditions named. In cells and extracts the contact can be indirect. Some binding calls cover weakened binding; strength is not graded here.

This test has as its target Myc-DDK-tagged human rearranged L-myc fusion (RLF-Flag) (human) (UniProt Q13129). Briefly: co-IP; anti-FLAG M2 magnetic beads on nuclear lysate of HEK293T cells transiently transfected with RLF-Flag or empty vector; High stringency IP buffer, 1 hr at 4°C; endogenous partners detected by Western blot; independent samples from those of the mass spectrometry.
CBX5 (from UniProt P45973 1-191): the binding result is listed as “binds”.

Take NBS1 (from UniProt O60934 1-754): the binding entry was “binds”.

On to RAD50 (from UniProt Q92878 1-1312), for which the binding entry is on record as “binds”.

Consider RCOR1 (from UniProt Q9UKL0 1-485), for which the binding result was “binds”.
